From PMC3271061 come the findings set out here.

No constants are given. Whether binding was seen depends on the method and setting. Some entries that bind do so weakly or less than the wild type.

The target in experiment [1] is T1, AtASY3 (Arabidopsis thaliana) (UniProt Q0WR66).
T1 sequence: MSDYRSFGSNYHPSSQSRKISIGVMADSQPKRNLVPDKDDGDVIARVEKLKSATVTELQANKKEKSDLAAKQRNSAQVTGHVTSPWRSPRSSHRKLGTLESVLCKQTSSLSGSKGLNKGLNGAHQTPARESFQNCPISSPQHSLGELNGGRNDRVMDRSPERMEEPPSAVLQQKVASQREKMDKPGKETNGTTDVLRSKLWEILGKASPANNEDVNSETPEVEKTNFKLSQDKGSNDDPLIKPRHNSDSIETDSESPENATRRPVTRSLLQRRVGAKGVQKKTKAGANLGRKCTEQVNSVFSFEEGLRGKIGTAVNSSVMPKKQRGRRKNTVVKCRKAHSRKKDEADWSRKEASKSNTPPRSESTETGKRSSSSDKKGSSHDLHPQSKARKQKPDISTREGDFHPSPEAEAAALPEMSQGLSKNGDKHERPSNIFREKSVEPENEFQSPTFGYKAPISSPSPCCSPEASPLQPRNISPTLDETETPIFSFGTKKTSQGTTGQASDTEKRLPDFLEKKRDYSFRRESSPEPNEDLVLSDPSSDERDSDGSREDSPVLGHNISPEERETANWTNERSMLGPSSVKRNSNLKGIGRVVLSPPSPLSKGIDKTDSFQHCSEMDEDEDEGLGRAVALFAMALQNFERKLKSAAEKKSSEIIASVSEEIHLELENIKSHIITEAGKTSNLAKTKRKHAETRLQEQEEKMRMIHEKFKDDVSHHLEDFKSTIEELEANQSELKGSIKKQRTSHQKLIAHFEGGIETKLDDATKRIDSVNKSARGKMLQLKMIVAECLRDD
The experiment can be described thus: two-hybrid; GAL4 DBD (pGBKT7) and GAL4 AD (pGADT7) fusions co-transformed into Y2HGold yeast; growth on SD -Leu/-Trp/-His and SD -Leu/-Trp/-His/-Ade; drop test with serial dilutions, 30°C, 2 days.

The target in experiment [2] is T2, AtASY1 (Arabidopsis thaliana) (UniProt F4HRV8).
T2 sequence: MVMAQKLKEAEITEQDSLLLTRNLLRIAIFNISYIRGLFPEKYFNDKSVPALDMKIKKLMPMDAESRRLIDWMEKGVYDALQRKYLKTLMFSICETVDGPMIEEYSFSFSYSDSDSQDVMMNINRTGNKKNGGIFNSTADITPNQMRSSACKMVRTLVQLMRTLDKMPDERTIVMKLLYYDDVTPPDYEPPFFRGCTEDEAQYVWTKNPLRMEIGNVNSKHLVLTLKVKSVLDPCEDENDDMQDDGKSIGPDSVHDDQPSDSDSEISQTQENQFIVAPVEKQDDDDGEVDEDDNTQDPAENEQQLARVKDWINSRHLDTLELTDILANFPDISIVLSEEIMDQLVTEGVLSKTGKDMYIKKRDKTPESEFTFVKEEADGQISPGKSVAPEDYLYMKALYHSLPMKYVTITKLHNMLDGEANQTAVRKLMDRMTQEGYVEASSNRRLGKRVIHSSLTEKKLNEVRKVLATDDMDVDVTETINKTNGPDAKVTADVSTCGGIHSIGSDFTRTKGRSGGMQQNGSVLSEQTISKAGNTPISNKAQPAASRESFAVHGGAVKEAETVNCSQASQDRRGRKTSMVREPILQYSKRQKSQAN
Described as above.

B1: AtASY1 (protein, UniProt F4HRV8 1-596)
chain: T2 sequence
As for B1, the binding result in experiment [1] is listed as “binds”.

B2: AtASY3 (protein, UniProt Q0WR66 1-793)
chain: T1 sequence
B2: the binding entry in experiment [2] is “binds”.
